Source: paper PMC11784353

Assays:
VN-MAVS-Flag (equine) = experiment: split reporter; BiFC with Venus fragments: VN-MAVS-Flag and VC-Smurf1-HA co-transfected into HEK293T cells, with or without Gag (signal enhanced with Gag); confocal microscopy
[1] = target: equine MAVS-Flag (equine); experiment: co-IP; HEK293T cells co-transfected with the two tagged proteins, harvested at 24 hpt; lysis buffer 50 mM HEPES-NaOH pH 7.9, 100 mM NaCl, 50 mM KCl, 0.25% NP-40, 1 mM dithiothreitol; precipitated with anti-Flag and anti-Flag magnetic beads overnight at 4°C, washed four times; immunoblot with anti-HA or anti-Flag; in Fig. 5C also with Gag-Myc co-expressed (more Smurf1 bound to MAVS)
[2] = target: EIAV Gag-Flag (equine infectious anemia virus (EIAV)); experiment: as above

Molecule: VC-Smurf1-HA (from UniProt F6R1Z0 1-727) (enzyme)
- binding (VN-MAVS-Flag (equine)): binds

Molecule: equine Smurf1-HA (from UniProt F6R1Z0 1-727) (enzyme)
- binding [1]: binds

B1: truncated Smurf1-HA (aa 121 to 419) (domain or fragment, UniProt F6R1Z0 121-419)
chain: LSPSDTDAVRGQIVVGLQTRDRIGTGGSVVDCRGLLENEGTVYEDSGPGRPLSCFMEEPAPYTDSTGAAAGGGNCRFVESPSQDQRLQAQRLRNPEVRGSLQTPQNRPHGHQSPELPEGYEQRTTVQGQVYFLHTQTGVSTWHDPRIPRDLNSVNCDELGPLPPGWEVRSTVSGRIYFVDHNNRTTQFTDPRLHHIMNHQCQLKEPSQPLPLPSEGSVEDEELPAQRYERDLVQKLKVLRHELSLQQPQAGHCRIEVSREEIFEESYRQIMKMRPKDLKKRLMVKFRGEEGLDYGGVAR
- binding [2]: binds

B2: HA-tagged MUL1 (enzyme, UniProt F6TM98 1-324)
chain: MLEKGTFAVLNKGARRIHLGEDLKSILSEAPGKCVPYAVIEGVVRSVKETLNSQFVDNCKGVIQRLTLQEHKMVWNRTTHLWNDCSKIIHQRTNSVPFELVPHEDGVDVAVRVLKPLDALDLGLETVYEKYHPLVQSFTDVIGHYISGERPKGIQETEEMLKVGAALTGVGELVLDNNAVRLQPPKQGMQYYLSSQDFDSLLQGQESSARLWKVLTLVFGFAACAALFFILWKQYLQRQERLRLKQMEEEFREHEAQLLSRAKPEDRESLKSACVVCLSNFKACVFLECGHVCSCAECYRALPEPKRCPICRQQITRVVPLYSS
- binding [2]: no binding

These are yes or no findings as the source states them, for the method shown. In cells and extracts the contact can be indirect. A result given as binding can be weak or reduced; the word gives no strength. For some of these results: Sequences can lack the tags named with a protein.
